Results are given in words; binding and its absence hold for the method and conditions named. Some binding calls cover weakened binding; strength is not graded here.
Biological target: murine HDGF (of the putative 'MiaPaca-2' line, believed to be M109 murine lung adenocarcinoma cells) (mouse) (UniProt P51859)
Assay: immunoprecipitation from the putative 'MiaPaca-2' (murine) cells

The chains behind the UniProt entries cited, without tags or fusion partners. Where a name states a change or a piece, a line headed by the entry shows the natural chain unless it says otherwise.
UniProt P51859: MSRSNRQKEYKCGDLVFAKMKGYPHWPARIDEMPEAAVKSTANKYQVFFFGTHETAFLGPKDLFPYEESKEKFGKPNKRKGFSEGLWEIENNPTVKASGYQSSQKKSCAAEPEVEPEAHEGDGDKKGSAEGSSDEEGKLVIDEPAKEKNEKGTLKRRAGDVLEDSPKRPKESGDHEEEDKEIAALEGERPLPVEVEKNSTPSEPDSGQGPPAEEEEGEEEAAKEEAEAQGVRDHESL

B1: anti-HDGF monoclonal antibody H3 (antibody, V domains shown)
VH: QITLKQSGPGIVQPSQPVRLTCTFSGFSLSTSGIGVAWIRQPSGKGLEWLATIWWDDDNRYNPSLKSRLAVSKDTSNNQAFLNIITVETADTAIYYCAQIYDYAVGFAYWGQGTLVTVSA
VL: DIQMTQTTSSLSASLGDRVTISCRASQDISNYLNWYQQKPDGTVKLLIYYTSRLHSGVPSRFSGSGSGTDYSLTISNLEPDDIATYYCQQYGKLWTFGGGTKLEIK
Q: How did the binding turn out when B1 was run?
A: binds

From patent US20070243191A1, “ANTI-HYPERPROLIFERATIVE THERAPIES TARGETING HDGF” (THE BOARD OF REGENTS OF THE UNIVERSITY OF TEXAS SYSTEM, priority 2005, published 2007)
